## Results of single-concentration screens

Amino acid sequences for entries named in this document (tags omitted). Residues count along the entry.
UniProt Q4DA54, 1-478: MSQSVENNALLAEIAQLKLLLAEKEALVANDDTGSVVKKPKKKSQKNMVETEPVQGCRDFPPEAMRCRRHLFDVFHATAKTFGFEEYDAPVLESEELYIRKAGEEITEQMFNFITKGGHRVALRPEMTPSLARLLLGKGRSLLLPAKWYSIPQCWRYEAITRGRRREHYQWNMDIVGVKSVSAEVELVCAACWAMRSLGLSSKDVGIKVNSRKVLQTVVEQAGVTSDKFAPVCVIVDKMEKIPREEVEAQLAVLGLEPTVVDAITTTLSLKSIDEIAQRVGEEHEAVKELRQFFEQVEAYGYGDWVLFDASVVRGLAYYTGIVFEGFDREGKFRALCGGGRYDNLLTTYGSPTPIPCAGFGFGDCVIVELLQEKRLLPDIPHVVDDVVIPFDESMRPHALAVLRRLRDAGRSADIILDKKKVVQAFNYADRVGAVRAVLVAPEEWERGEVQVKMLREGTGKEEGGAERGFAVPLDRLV
UniProt A4I591, 1-473: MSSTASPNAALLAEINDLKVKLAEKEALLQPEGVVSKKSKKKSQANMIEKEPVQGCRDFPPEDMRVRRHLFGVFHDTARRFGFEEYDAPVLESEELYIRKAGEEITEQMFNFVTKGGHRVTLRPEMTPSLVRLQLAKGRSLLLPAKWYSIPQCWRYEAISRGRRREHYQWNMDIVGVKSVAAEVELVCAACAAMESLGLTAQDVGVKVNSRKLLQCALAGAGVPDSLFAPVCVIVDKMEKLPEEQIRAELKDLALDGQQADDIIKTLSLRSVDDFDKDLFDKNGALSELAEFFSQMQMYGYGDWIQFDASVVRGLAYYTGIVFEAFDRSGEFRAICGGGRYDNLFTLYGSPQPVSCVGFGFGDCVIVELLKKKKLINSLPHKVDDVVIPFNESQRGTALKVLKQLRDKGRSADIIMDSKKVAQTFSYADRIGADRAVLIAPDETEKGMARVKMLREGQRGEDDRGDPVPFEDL
UniProt P9WPC5, whole entry: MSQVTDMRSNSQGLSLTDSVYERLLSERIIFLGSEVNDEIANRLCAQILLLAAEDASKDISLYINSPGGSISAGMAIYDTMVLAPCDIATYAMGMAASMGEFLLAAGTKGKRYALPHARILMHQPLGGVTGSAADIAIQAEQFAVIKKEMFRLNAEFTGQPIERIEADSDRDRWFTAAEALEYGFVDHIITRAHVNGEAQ
UniProt P9WPC3, whole entry partner: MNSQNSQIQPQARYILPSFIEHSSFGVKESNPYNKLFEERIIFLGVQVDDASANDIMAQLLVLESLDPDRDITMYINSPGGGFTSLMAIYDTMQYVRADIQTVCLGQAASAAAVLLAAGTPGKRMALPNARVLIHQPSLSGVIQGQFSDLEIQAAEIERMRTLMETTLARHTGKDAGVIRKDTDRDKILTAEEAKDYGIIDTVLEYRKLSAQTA

Measurements from “University of Dundee, Small-Polar-MMV Screening Library” (2021), ChEMBL document CHEMBL3988442.

A: 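Assay of Toxoplasma gondii numbers, read through their beta-galactosidase reporter with a colour substrate. Compounds at 10 µM. Higher reads as fewer parasites (inferred from which compounds were picked for retests). Size under these conditions: about 67,000 compounds, about 260 of them at 50% or above in at least one test.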
B: 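Cell assay of Leishmania donovani living inside macrophages; the read-out is not stated. Compounds at 30 µM. The record gives no direction; compounds that gave an IC50 in retests scored well above the rest, so higher reads as stronger inhibition. Of about 69,000 compounds tested this way, about 1,000 (1.5%) reached 50% or more in at least one test.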
C: 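Enzyme assay of histidyl-tRNA synthetase; the read-out is not stated. Target: Histidine-tRNA ligase, Trypanosoma cruzi CL Brener (UniProt Q4DA54). Tested at 30 µM. Higher reads as stronger inhibition (inferred: compounds with an IC50 in retests scored well above the rest). Size under these conditions: about 69,000 compounds, about 31 of them at 50% or above in at least one test.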
D: 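Enzyme assay of histidyl-tRNA synthetase; the read-out is not stated. Target: Histidine-tRNA ligase, Leishmania infantum (UniProt A4I591). Compounds at 30 µM. Direction is inferred from retests: higher values go with stronger inhibition. The assay is labelled LdHisRS but filed under L. infantum. About 69,000 compounds were tested under these conditions; 0.6% (about 410) showed 50% or more at least once.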
E: 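ClpP1P2, Mycobacterium tuberculosis (UniProt P9WPC5 and UniProt P9WPC3). Protease assay of ClpP1P2, read by the AMC dye that it sets free. Tested at 50 µM. Direction is inferred from only a few compounds that gave an IC50; most scored high, so higher reads as stronger inhibition. Most other retested compounds had strongly negative values. Size under these conditions: about 69,000 compounds, about 10 of them at 50% or above in at least one test.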
F: 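Whole-parasite assay of Trypanosoma brucei over 72 hours; the read-out is not stated. Compounds at 30 µM. Direction is inferred from retests: higher values go with stronger inhibition. Values scatter widely below zero; nearly all retest evidence comes from the higher of the two concentrations used. About 64,000 compounds were tested under these conditions; 1.5% (about 940) showed 50% or more at least once.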

Values are the deposited “Percent Effect”, in %. The record does not define 0% and 100%; most values in the screen are far below 50% and negative numbers occur (in some assays of this library far below -100). This is an unselected part of the compounds tested. A dash means the value is not listed here; it may have been measured.

compound	A	B	C	D	E	F
CC(C)N1CCC2(CCCNC2)C1=O.Cl (stereo unspecified)	-18.01%	-10.09%	-	-	-	-12.2%
CN1CCN(CCOc2ccc(NC(=O)c3ccc[nH]3)cc2)CC1	6.54%	4.272%	7.182%	-1.036%	-6.632%	-35.71%
[H][C@@]12OCCC[C@]1([H])N(C(=O)c1cnc(C)cn1)C[C@H]2NS(C)(=O)=O	-4.412%	18.3%	-	-	-	16.74%
CCn1cc2c(n1)CN(CC1CC1)CC2COCC1CC1 (stereo unspecified)	-	-	6.011%	12.41%	3.403%	-
O=c1c(Cc2ccccc2)c(O)ccn1Cc1cccs1	-7.733%	-6.563%	3.125%	2.083%	-15.63%	-
CCOc1ccc(-c2ccnc(C)n2)cc1C(=O)O	-5.472%	10.64%	7.143%	13.89%	3.8%	-47%
c1cnnc(N2CCCC2CNCc2nc(-c3cccs3)no2)c1 (stereo unspecified)	-13.85%	29.26%	12.61%	15.74%	-15.76%	2.65%
CN(Cc1nccn1CC(F)(F)F)C(=O)c1cccc(C#N)c1	-1.156%	0.03005%	4.348%	2.857%	5.886%	38.44%
COC(=O)CN(C(=O)c1ccoc1)c1cccc(F)c1	-6.441%	-12.51%	9.639%	18%	4.473%	-26.96%
CCOC(C)c1noc(CN(C)C(=O)C2C(C)(C)C2(C)C)n1 (stereo unspecified)	1.457%	-1.43%	0%	8.571%	-9.643%	-14.08%
CC(C)OCCC(=O)NCC(c1c(F)cccc1F)N(C)C (stereo unspecified)	4.385%	3.47%	-1.754%	10.71%	0.4106%	-55.08%
CCN(CC)C(=O)[C@@H]1C[C@H](NC(=O)c2ccn(C(C)(C)C)c2)CN1C	-1.876%	16.77%	7.595%	14.58%	-0.7495%	-5.415%
N#Cc1cccc(S(=O)(=O)N2CCCCC2CCN2CCCC2)c1 (stereo unspecified)	-21.82%	13.37%	8.04%	18.09%	3.102%	-20.96%
c1cnc(-c2nc(CN3CCCN(Cc4cccs4)CC3)cs2)nc1	26.92%	12.71%	8.455%	22.02%	-15.81%	-
CC(C)c1cc(N2CCSCC2)n2nccc2n1	-22.26%	5.602%	6.122%	-5.556%	-4.049%	-15.7%
Cc1nnc(C2CCN(c3ccc(F)cc3)CC2)o1	5.07%	4.004%	6.202%	28.37%	-31.38%	-8.061%
CCN1CCC(CNC(=O)C(c2ccccc2F)N(C)C)(N(C)C)CC1 (stereo unspecified)	-4.854%	24.47%	3.185%	23.94%	3.352%	-57.61%
CC(c1cncs1)N(C)Cc1ccc(CCC(C)(C)O)cc1 (stereo unspecified)	-4.58%	19.8%	8.671%	-57.33%	11.6%	-8.49%
COc1cccc(CN2C[C@@H]3COC[C@]3(COc3cccnc3)C2)c1	-	-	15.97%	19.27%	11.38%	-
[H][C@@]12CNC[C@]1([H])N(C(=O)c1cccnc1)CCO2	-8.961%	15.24%	-	-	-	-87.38%
CNc1nc2c(c(C(=O)N3CCCC3)n1)CN(C(=O)c1cccs1)CC2	-2.727%	3.118%	8.04%	13.83%	17.94%	-27.75%
CC(=O)Nc1ccc(Cl)c(C(=O)N(C)C(C)c2nccs2)c1 (stereo unspecified)	5.932%	6.7%	2.809%	17.95%	0.9505%	-3.812%
Cc1ccccc1C(=O)NCCCN1CCc2ccccc2C1	-6.362%	9.574%	7.345%	12.07%	-26.49%	2.145%
CCCn1cnnc1CNC(=O)C1COc2cc(OC)ccc2C1 (stereo unspecified)	-3.539%	-15.66%	-1.316%	5.833%	1.027%	-8.785%
O=C(c1ccco1)N1C[C@H]2CCCN(Cc3ccc(F)cc3)[C@H]2C1	-	-	5.785%	10.91%	-0.419%	-
O=C(CCN1CCCC1=O)NCc1cccnc1Oc1ccccc1	10.2%	10.26%	0%	7.619%	-4.215%	-6.541%
CC1(C(=O)N2CCOCC2)CN(Cc2cccnc2)CCO1 (stereo unspecified)	-3.867%	-7.971%	7.447%	-1.042%	1.775%	2.066%
Cc1ccc(NC(=O)c2nc(N3CCCCC3)ncc2Cl)cc1I	9.642%	8.783%	-27.17%	21.21%	11.72%	-4.752%
COc1ccccc1OC1CN(C(=O)Cc2c(C)nc3ccccn23)C1	-1.265%	42.17%	5.051%	18.03%	-12.61%	-3.412%
Cn1cc(CN2CCc3onc(COc4cccnc4)c3C2)cn1.O=C(O)C(F)(F)F.O=C(O)C(F)(F)F	-1.435%	4.373%	-	-	-	-29.45%
[H][C@@]12CS(=O)(=O)C[C@]1([H])N(Cc1ccc(C)cc1)CCN2Cc1ccncc1	6.972%	17.31%	-	-	-	-29.35%
Cc1cc(N2CCN(Cc3cn(C)nc3C)CC2)cc(C2CCCN2)n1.Cl (stereo unspecified)	-22.6%	26.1%	-	-	-	-3.996%
COCCN1C(=O)CCC12CCCN(C(=O)NC(C)C)CC2 (stereo unspecified)	4.697%	-10.28%	1.942%	11.54%	-6.372%	-15.86%
Cc1nc(CNCC2CCCN(C(=O)OC(C)(C)C)C2)cs1 (stereo unspecified)	7.827%	-0.8299%	16.46%	12.5%	7.291%	-19.25%
O=C1CC(c2ccncc2)C2(CCN(Cc3cccnc3)CC2)N1 (stereo unspecified)	2.794%	13.32%	7.438%	12.73%	5.302%	34.93%
CC1(NC(=O)Cc2csc(-c3cccc(Cl)c3)n2)CCS(=O)(=O)C1 (stereo unspecified)	4.858%	6.758%	5.521%	22.22%	5.904%	-26.77%
CCNc1nnc(SCC(=O)N2CCN(Cc3ccc(Cl)s3)CC2)s1	-2.402%	22.32%	9.852%	17.81%	-10.28%	-10.18%
CCC(NS(C)(=O)=O)c1ccccc1OC (stereo unspecified)	3.522%	14.99%	9.036%	15.38%	-1.037%	-55.32%
Cc1nccc(NCc2cncc3c2CCN(CC2CC2)C3)n1	-	-	11.64%	13.64%	-7.183%	-
Cc1cnn(CCNCc2nc(-c3ccsc3)oc2C)c1	-1.654%	1.346%	3.448%	14.29%	-13.14%	-14.02%
CO[C@H]1C[C@@H](O)C12CCN(C(=O)c1cccc(CCC(C)(C)O)c1)CC2	-4.704%	29.54%	7.182%	12.68%	-3.643%	-35.37%
CC(NC(=O)NCCn1ccnc1)c1ccc2c(c1)NC(=O)CO2 (stereo unspecified)	-	0.8223%	4.511%	-21.35%	1.188%	-33.57%

For reference, 5 entries once more:

For CNc1nc2c(c(C(=O)N3CCCC3)n1)CN(C(=O)c1cccs1)CC2 the result was A: -2.727%; B: 3.118%; C: 8.04%; D: 13.83%; E: 17.94%; F: -27.75%.
For N#Cc1cccc(S(=O)(=O)N2CCCCC2CCN2CCCC2)c1 (stereo unspecified) the result was A: -21.82%; B: 13.37%; C: 8.04%; D: 18.09%; E: 3.102%; F: -20.96%.
For O=c1c(Cc2ccccc2)c(O)ccn1Cc1cccs1 the result was A: -7.733%; B: -6.563%; C: 3.125%; D: 2.083%; E: -15.63%.
For O=C(CCN1CCCC1=O)NCc1cccnc1Oc1ccccc1 the result was A: 10.2%; B: 10.26%; C: 0%; D: 7.619%; E: -4.215%; F: -6.541%.
For Cc1ccc(NC(=O)c2nc(N3CCCCC3)ncc2Cl)cc1I the result was A: 9.642%; B: 8.783%; C: -27.17%; D: 21.21%; E: 11.72%; F: -4.752%.